Test results taken from patent US20070128187A1 (GENOME THERAPEUTICS, published 2007).
No constants are given. Whether binding was seen depends on the method and setting. Some binding calls cover weakened binding; strength is not graded here.

Molecular target: T1, LRP5 ligand binding domain (LBD) bait sequence (which bait is not stated) (human) (UniProt O75197)
T1 sequence: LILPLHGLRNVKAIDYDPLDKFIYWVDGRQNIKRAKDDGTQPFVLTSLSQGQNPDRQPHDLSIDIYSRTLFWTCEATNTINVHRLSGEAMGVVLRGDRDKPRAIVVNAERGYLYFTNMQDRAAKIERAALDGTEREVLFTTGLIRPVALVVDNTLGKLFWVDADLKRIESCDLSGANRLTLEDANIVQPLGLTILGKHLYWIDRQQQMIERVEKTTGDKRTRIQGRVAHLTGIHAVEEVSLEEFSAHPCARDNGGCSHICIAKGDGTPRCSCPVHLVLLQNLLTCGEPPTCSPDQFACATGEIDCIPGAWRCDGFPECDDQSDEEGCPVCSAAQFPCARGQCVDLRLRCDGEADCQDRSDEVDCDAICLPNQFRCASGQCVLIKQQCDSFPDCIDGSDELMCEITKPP
Assay: Y2H (peptides of FIG. 4)

B1: OST262 (LRP5 peptide aptamer) (peptide)
chain: DGSMSDKIIHLTDDSFDTDVLKADGAILVDFWAEWCGPNSLWIGPGDQGLFRRFVFTSGPCKMIAPILDEIADEYQGKLTVAKLNIDQNPGTAPKYGIRGIPTLLLFKNGEVAATKVGALSKGQLKEFLDANLA
binding: binds
